Experimental findings from publication PMC10588109 are described below.

Protein sequences, listed by entry. Tags and fused reporters are not part of them.
UniProt Q16665: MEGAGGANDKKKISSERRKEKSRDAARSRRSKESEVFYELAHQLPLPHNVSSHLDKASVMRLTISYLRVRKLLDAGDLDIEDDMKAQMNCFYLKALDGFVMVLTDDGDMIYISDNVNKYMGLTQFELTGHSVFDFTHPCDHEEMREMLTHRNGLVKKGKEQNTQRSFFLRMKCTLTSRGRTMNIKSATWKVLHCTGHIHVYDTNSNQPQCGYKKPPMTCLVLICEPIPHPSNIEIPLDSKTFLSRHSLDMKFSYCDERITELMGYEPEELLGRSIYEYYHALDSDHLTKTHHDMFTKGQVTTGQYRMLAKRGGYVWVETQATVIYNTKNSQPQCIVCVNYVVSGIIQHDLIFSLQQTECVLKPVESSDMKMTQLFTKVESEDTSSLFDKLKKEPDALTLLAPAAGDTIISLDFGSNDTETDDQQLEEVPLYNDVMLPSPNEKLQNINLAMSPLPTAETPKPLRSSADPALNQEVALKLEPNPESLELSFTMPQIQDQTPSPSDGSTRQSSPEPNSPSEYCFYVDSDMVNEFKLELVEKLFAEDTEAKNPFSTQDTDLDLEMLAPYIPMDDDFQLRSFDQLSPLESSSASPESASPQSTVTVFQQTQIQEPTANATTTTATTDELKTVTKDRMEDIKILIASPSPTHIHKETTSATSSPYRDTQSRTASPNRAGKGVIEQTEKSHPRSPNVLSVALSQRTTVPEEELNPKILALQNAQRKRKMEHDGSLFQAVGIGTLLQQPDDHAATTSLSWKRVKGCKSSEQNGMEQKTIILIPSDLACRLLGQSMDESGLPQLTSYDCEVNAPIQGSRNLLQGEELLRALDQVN

Test [1] deals with T1, Estrogen-related receptor alpha (UniProt P11474).
T1 sequence: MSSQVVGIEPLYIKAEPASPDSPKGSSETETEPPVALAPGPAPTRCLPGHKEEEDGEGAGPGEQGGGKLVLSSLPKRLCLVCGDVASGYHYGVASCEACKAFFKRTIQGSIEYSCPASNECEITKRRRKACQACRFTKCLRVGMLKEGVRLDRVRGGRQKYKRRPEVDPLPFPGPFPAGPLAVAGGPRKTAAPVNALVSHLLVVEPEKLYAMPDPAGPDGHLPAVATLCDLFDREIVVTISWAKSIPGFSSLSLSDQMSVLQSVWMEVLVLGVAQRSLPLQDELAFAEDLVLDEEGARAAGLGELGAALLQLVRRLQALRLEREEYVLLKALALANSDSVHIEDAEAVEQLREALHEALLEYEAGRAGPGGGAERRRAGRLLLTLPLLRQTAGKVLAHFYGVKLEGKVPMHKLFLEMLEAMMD
The test is described as follows: co-IP; HEC-1A-ovERRα cell lysate in IP buffer with protease inhibitor; incubated overnight with ERRα antibody (sc-65720), HIF-1α antibody (20960-1-AP) or control IgG; protein A agarose beads 2-4 h; SDS-PAGE and WB.

In test [2] the target is Hypoxia-inducible factor-1 alpha (human (endogenous in HEC-1A)) (UniProt Q16665). The test is described as above.

No constants are given. Whether binding was seen depends on the method and setting. Binding seen in cells or lysates may run through a third protein. Some binding calls cover weakened binding; strength is not graded here.

As for “Hypoxia-inducible factor-1 alpha (from UniProt Q16665 1-826)”, the binding entry in test [1] is listed as “binds”.

B1: Estrogen-related receptor alpha (protein, UniProt P11474 1-423)
chain: T1 sequence
B1: the binding result in test [2] is listed as “binds”.
